## Primary screen of a compound library

The values are deposited in ChEMBL (CHEMBL3988442, “University of Dundee, Small-Polar-MMV Screening Library” (2021)).

Each number is a percent effect as filed.
The controls that fix the scale are not given in the record; negative values are as filed.
Compounds were drawn at random from those tested, without regard to their results.
Two or more numbers in one place are separate tests of the same structure; such repeats can differ widely.

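Viability assay of Plasmodium falciparum sporozoites; the read-out is not stated. The concentration is filed as 10 mM, unlikely as a test dose, so the dose is not known. Direction is inferred from retests: higher values go with lower viability. Strong results were mostly tested again. About 34,000 compounds were tested under these conditions; 0.84% (about 280) showed 50% or more at least once.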

compound | Percent Effect
CC/N=c1\nc(NCC)nc2n1C(O)(Nc1cc(Cl)ccc1Cl)CS2 (stereo unspecified) | -10.63 and -16.8
c1cncc(CN2CCC(c3ccnc4nccn34)C2)c1 (stereo unspecified) | 9.777
CC(=O)N1CC2(CCN(C(=O)c3cccc4[nH]ccc34)CC2)C1 | -8.348
O=C(c1cc(-n2cccn2)ccc1Cl)N1CCCC(N2CCCC2)C1 (stereo unspecified) | 2.606
CC(C)c1nccn1C1CCCN(C(=O)c2cccc3c2OCO3)C1 (stereo unspecified) | -10.08
O=C(CCc1cscn1)NS(=O)(=O)c1ccc2ccccc2c1 | -6.495
CCn1c(CN(C)C(=O)c2ccc(O)nc2)nc2ccccc21 | 1.001
Cc1nccn1CCCC(=O)N1CCCN(c2cccnn2)CC1 | 8.136
c1sc(C2CCCC2)nc1CN1CCn2c(nnc2C2CC2)C1 | -4.762
CCCc1nc(C(=O)NC(COC)c2ccnn2C)cs1 (stereo unspecified) | -2.328
CCN(CC1CCCN(CCc2cccc(OC)c2)C1)C(=O)CN(C)C (stereo unspecified) | 1.404
CCc1nc(CN2CCN(C(=O)c3cc(C)no3)CC2)cs1 | 16.08
Cc1cc(C)n(CC2CN(CCOc3ccc(C#N)cc3)CCO2)n1 (stereo unspecified) | -6.912
CC(C(=O)N1CCCCCC1)N1CCN(Cc2nccn2C)CC1 (stereo unspecified) | 1.899
c1cc2nc(C3CCNCC3)nn2cc1NC1CCC1 | 8.608
C/C=C(\C)CN1CCCn2nc(CNC(=O)C3CCC3)cc2C1 | -0.08772
O=C(c1ccc(N2CCCCCC2)nn1)N1CCc2ccccc21 | 8.326
COCCO[C@H]1CCN(Cc2ccsc2)[C@H]1Cc1cccnc1.O=C(O)C(F)(F)F.O=C(O)C(F)(F)F | 11.84
Cc1cccc2sc(NC(=O)CN3CCC(C)CC3)nc12 | 5.902 and -3.165
CN(Cc1cccnc1)Cc1cn2c(n1)CN(C1CCOCC1)CC2 | 4.825
CN(Cc1cc[nH]n1)C(=O)c1cccc(CCC(C)(C)O)c1 | 10.3
CCc1nc(C2CCCN2Cc2nc3ccccc3o2)no1 (stereo unspecified) | -0.6936
CC(C)C(=O)NCCc1nc(-c2ccncc2)n[nH]1 | -17.45
Cc1ccsc1CN(C)Cn1nccc1-c1cccnc1 | -7.453
[H][C@@]12CN(Cc3ccoc3)CCO[C@]1([H])CN(C(=O)C1CC(F)(F)C1)C2 | 1.284
CN(C)C1COC2(CCN(C(=O)c3cccnc3)CC2)C1 (stereo unspecified) | 0.5133
O=C(O)C(F)(F)F.O=C(O)C(F)(F)F.[H][C@@]12CN(Cc3ccc(F)cc3)C[C@]1([H])OCCN2CC1CCCO1 (stereo partly specified) | -12.49
[H][C@@]12CCN(C(=O)c3cscn3)C[C@@]1([H])O[C@H](c1ccncn1)C2 | -9.489
O=C(CCOc1ccc(F)cc1)N1CCCC1Cn1cccn1 (stereo unspecified) | 2.244
Cc1cccc(C(=O)N2CCN(C(=O)Cc3ccccn3)CC2)c1C | 0.7402 and -14.31 and -17.8
Cc1ccc2c(c1)C(=O)NCC1(CCN(C(=O)c3csc(C)c3)CC1)O2 | 1.108
CCS(=O)(=O)N1CCC(C(=O)NC(Cc2ccsc2)c2nccs2)CC1 (stereo unspecified) | 5.33
CC(=O)Nc1ccc(CNCC(O)c2ccc(Cl)cc2)cc1 (stereo unspecified) | -4.902
O=C1CCCN1CCCC(=O)N1CCCC(c2ccn[nH]2)C1 (stereo unspecified) | 5.64
CN(Cc1nccn1CC(F)(F)F)C(=O)c1ccc(F)c(F)c1 | -4.848
CCN(Cc1ccco1)C(=O)NCC(C)N1CCc2sccc2C1 (stereo unspecified) | -7.166 and -2.798
CCc1nnsc1C(=O)N1CCCC1c1c(C)nn(C)c1OC (stereo unspecified) | 7.131
CN(CCCOc1ccccc1Cl)C(=O)CN1CCCCCC1=O | -7.526
CN(Cc1ccc(O)cc1)C(=O)NCc1nnc2n1CCCCC2 | 21.96
CCCN1C(=O)C2(CCCCC2)NC1c1cn(C)c(=O)n(C)c1=O (stereo unspecified) | -16.56
Cn1cc(C(=O)NC2CCN(Cc3ccn(C)c(=O)c3)CC2)cn1 | -0.161
Cc1nn(C)c(N(C)C)c1CNC(C)COc1ccc(F)cc1 (stereo unspecified) | -0.4432
COc1c(CNCc2ccc(C(=O)N(C)C(C)C)cc2)c(C)nn1C | -3.714
CC[C@H](C)[C@H](NC(=O)Cc1csc(-c2cccc(Cl)c2)n1)C(=O)O | -2.632
COc1c(C2CCCN2C(=O)c2ccc3[nH]cnc3c2)c(C)nn1C (stereo unspecified) | 7.041
O=C(O)C(F)(F)F.O=C(O)C(F)(F)F.[H][C@@]12CCN(CC3CC3)[C@@]1([H])CCN2Cc1ccc2c(c1)OCO2 | 5.304
CC(C)(C)C1SCC(=O)Nc2c1c(O)nn2C1CCCC1 (stereo unspecified) | -2.271
Cn1cccc1C(=O)OCCNC(=O)c1ccccc1 | 0.5513
COc1ccc(C2C3=C(COC3=O)Nc3[nH]nc(C)c32)cc1OC (stereo unspecified) | 7.456
CCOCC1CN(CCN2CCCCC2)Cc2cnn(C)c21.O=C(O)C(F)(F)F.O=C(O)C(F)(F)F.O=C(O)C(F)(F)F (stereo unspecified) | 10.94
CN1CC[C@H](N(Cc2ccccc2)CC2CC2)C[C@H](O)C1 | -2.01
CCn1cncc1CN1CCN(CC2(c3ccc(C)cc3)CC2)CC1.Cl | 10.86
CS(=O)(=O)Cc1cccc(C(=O)N2CCCC(n3cccn3)C2)c1 (stereo unspecified) | 5.797
CN1C(=O)CCCC12CCCN(Cc1cccs1)C2.O=C(O)C(F)(F)F (stereo unspecified) | 9.545

Once more, the final 3:

| compound | Percent Effect |
|---|---|
| `CCn1cncc1CN1CCN(CC2(c3ccc(C)cc3)CC2)CC1.Cl` | 10.86 |
| `CS(=O)(=O)Cc1cccc(C(=O)N2CCCC(n3cccn3)C2)c1` (stereo unspecified) | 5.797 |
| `CN1C(=O)CCCC12CCCN(Cc1cccs1)C2.O=C(O)C(F)(F)F` (stereo unspecified) | 9.545 |